Measurements published in PubChem BioAssay AID2685 (National Center for Advancing Translational Sciences (NCATS), 2010).
Some of the results follow. Further columns of the screen follow, without active or inactive calls. The list favours compounds with an active or inconclusive main result. Potencies come from curve fits of mixed quality, noted in brackets.

Experiment: qHTS Assay for Lipid Storage Modulators in Drosophila S3 Cells;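 on cell number change: cells counted by Cell Tracker Red CMTPX staining in the red channel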
Details: BODIPY lipid droplet fluorescence, 18-24 h; for cell number change: measured here: cell count max response, cells fed with added oleic acid
Outline: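 Drosophila S3 cells got compounds at several concentrations plus oleic acid (400 uM solution). Laser-scanning cytometry with 488 nm excitation read lipid droplets at 500-530 nm and cells at 575-640 nm. Percent activity was relative to 20 uM Triacsin C.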

[1] = measured here: lipid fluorescence (Fed channel) AC50, cells fed with added oleic acid
[2] = measured here: cell number channel AC50, cells fed with added oleic acid

Structure (SMILES)	cell number change	AC50 [1]	AC50 [2]
CCCN(Cc1ccc(N(C)C)cc1)CC1CC1	4.81%		
Cn1c(SCC(=O)N2CCOCC2)nnc1-c1cccc(NC(=O)c2ccccc2)c1	-11.3%		
CCN(C(=O)CN1CCOCC1)c1c(N)n(Cc2ccccc2)c(=O)[nH]c1=O		0.58 µM [falling, partial curve]	
Cc1ccc(OCC(O)Cn2c(N3CCCCC3)nc3c2c(=O)[nH]c(=O)n3C)cc1 (configuration not stated)	28.9%		0.731 µM [rising, full curve, poor fit]
Cc1cc(-c2cccs2)nc(-n2cccc2)n1	19.8%	13 µM [rising, partial curve]	
O=C(Nc1nc(-c2ccccc2)cs1)c1ccc(S(=O)(=O)N2CCc3ccccc32)cc1	15.9%	6.51 µM [rising, single point]	
CCCCn1c(N)c(N(CCOC)C(=O)c2ccc(-c3ccccc3)cc2)c(=O)[nH]c1=O	11.5%		
O=C(/C=C/C(=O)NCc1cccs1)NCc1cccs1	22.3%	29.1 µM [rising, single point]	
O=C(NCCCn1ccnc1)c1ccc(NS(=O)(=O)c2cccc([N+](=O)[O-])c2)cc1	10.3%	18.4 µM [rising, single point]	
COc1ccccc1NC(=O)C1=C(C)NC2=C(C(=O)CCC2)C1c1ccc2c(c1)OCO2 (configuration not stated)	4.52%	4.61 µM [rising, full curve, poor fit]	
O=C(COc1ncnc2cc([N+](=O)[O-])ccc12)NC(=O)NC1CCCCC1	34.6%		32.6 µM [rising, single point]
Cc1ccc(C(=O)NC(=S)NNC(=O)c2cccc([N+](=O)[O-])c2)cc1	-5.61%		
Cc1c(C(=O)N2CCN(c3ncccn3)CC2)sc2nc3n(c(=O)c12)CCCC3	3.85%	0.651 µM [rising, single point]	
Nc1nonc1C(=O)N/N=C/c1ccc(-c2cccc(C(=O)O)c2)o1	-38.7%		23.1 µM [falling, single point]
CCn1ccnc1C(O)(c1ccccc1)c1ccccc1	5.47%		
Cc1ccccc1/C=C\c1nc2ccccc2c(=O)[nH]1	-40.3%	11.6 µM [falling, partial curve]	11.6 µM [falling, partial curve, poor fit]
COc1ccc(/C=C/C(=O)N(Cc2ccccc2)c2ccccn2)cc1OC	-35.7%	32.6 µM [falling, single point]	29.1 µM [falling, single point]
CCC(C(=O)NC1CCCCCC1)n1nc(C)n2c(cc3occc32)c1=O (configuration not stated)	30.2%		0.58 µM [rising, full curve, poor fit]

An excerpt from above in order of length of the SMILES, high to low.
Structure (SMILES)	cell number change	AC50 [1]	AC50 [2]
COc1ccccc1NC(=O)C1=C(C)NC2=C(C(=O)CCC2)C1c1ccc2c(c1)OCO2 (configuration not stated)	4.52%	4.61 µM [rising, full curve, poor fit]	
Cc1ccc(OCC(O)Cn2c(N3CCCCC3)nc3c2c(=O)[nH]c(=O)n3C)cc1 (configuration not stated)	28.9%		0.731 µM [rising, full curve, poor fit]
Cc1cc(-c2cccs2)nc(-n2cccc2)n1	19.8%	13 µM [rising, partial curve]	
